{"source": "paper PMC12419465", "about": "“Photoresponsive molecular tweezers modulate Taspase 1 activity” (RSC Chemical Biology, 2025)", "assay": "Pull-down control without GST-Importin α (nonspecific binding to GSH beads)", "conditions": "100 μM; GST-Importin α omitted, 2.2 μM inactive Taspase 1-His", "data": [{"smiles": "Cc1nn(-c2ccc(-c3cn(CCOP(=O)(O)Oc4c5c(c(OP(=O)(O)O)c6c4C4CC6c6cc7c(cc64)C4CC7c6ccccc64)C4CC5c5cc6c(cc54)C4CC6c5ccccc54)nn3)cc2)c(C)c1N=Nc1ccc(-c2ccc(-c3cn(CCOP(=O)(O)Oc4c5c(c(OP(=O)(O)O)c6c4C4CC6c6cc7c(cc64)C4CC7c6ccccc64)C4CC5c5cc6c(cc54)C4CC6c5ccccc54)nn3)cc2)cc1", "note": "[TWAAP3]", "values": [{"measurement": "Nonspecific binding to the GSH beads", "result": "no detectable nonspecific binding"}]}, {"smiles": "Cc1nn(-c2ccc(C#Cc3ccc(-c4cn(CCOP(=O)(O)Oc5c6c(c(OP(=O)(O)O)c7c5C5CC7c7cc8c(cc75)C5CC8c7ccccc75)C5CC6c6cc7c(cc65)C5CC7c6ccccc65)nn4)cc3)cc2)c(C)c1N=Nc1ccc(C#Cc2ccc(-c3cn(CCOP(=O)(O)Oc4c5c(c(OP(=O)(O)O)c6c4C4CC6c6cc7c(cc64)C4CC7c6ccccc64)C4CC5c5cc6c(cc54)C4CC6c5ccccc54)nn3)cc2)cc1", "note": "[TWAAP4]", "values": [{"measurement": "Nonspecific binding to the GSH beads", "result": "displayed Taspase 1-His in the eluate"}]}]}
